PubChem BioAssay AID493246 | Drosophila RNAi Screening Center – 2011

Assay: 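Genes fly cells need to grow and stay alive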 (primary screen)
Cells: Drosophila Kc and S2R+ cells
Knock-down reagent: long dsRNA against Drosophila genes
Measurement: 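Cell number per well after knock-down, printed as raw plate values; calls were based on per-plate z-scores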
Direction: Kc cell number and S2R+ cell number: higher = more cells remaining
Rule for the call: 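Active when the per-plate z-score of cell number is 3 or more in the direction of fewer cells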
In all, the deposit lists about 21,000 reagents; this is an unselected part of those that have a named target and a result. Over the whole deposit, 429 (2%) are marked active. 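Values are raw and not normalised between plates; calls rest on per-plate z-scores that were not deposited.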 Reagents against one gene are numbered here. A plus sign joins genes that one reagent is predicted to hit. The record does not give: the amount of reagent, the time to read-out.

Target gene,reagent no.,"Kc cell number, rep 1","Kc cell number, rep 2","S2R+ cell number, rep 1","S2R+ cell number, rep 2",activity call
Srr (Serine racemase),1,1.71e6,1.75e6,1.24e6,1.39e6,inactive
CG13898,1,1.17e6,1.40e6,1.16e6,1.35e6,inactive
eff (effete),1,1.01e6,1.27e6,8.21e5,7.83e5,inactive
CG17261,1,1.52e6,1.38e6,1.00e6,1.12e6,inactive
CG17707,1,1.38e6,1.32e6,1.02e6,1.05e6,inactive
CG33467,1,1.50e6,1.47e6,9.90e5,1.14e6,inactive
Ntf-2 (Nuclear transport factor-2),1,1.44e6,1.49e6,1.03e6,1.13e6,inactive
SF1 (Splicing factor 1),1,1.54e6,1.68e6,1.03e6,1.24e6,inactive
Mtch,1,1.35e6,1.39e6,1.21e6,1.25e6,inactive
spi (spitz),1,1.63e6,1.68e6,1.37e6,4.65e5,inactive
frtz (fritz),1,1.52e6,1.59e6,1.04e6,1.14e6,inactive
CG10428,1,1.30e6,1.42e6,1.32e6,1.31e6,inactive
Poxn (Pox neuro),1,1.56e6,1.61e6,1.15e6,1.29e6,inactive
Poxn (Pox neuro),2,1.62e6,1.66e6,1.12e6,1.30e6,inactive
Syp (Syncrip),1,1.59e6,1.58e6,1.08e6,1.12e6,inactive
Syp (Syncrip),2,1.47e6,1.51e6,1.13e6,1.22e6,inactive
eIF4EHP,1,1.04e6,1.37e6,1.07e6,1.05e6,inactive
eIF4EHP,2,1.44e6,1.54e6,1.06e6,1.12e6,inactive
CG12917,1,1.46e6,1.50e6,1.26e6,1.37e6,inactive
CG18343,1,1.68e6,1.60e6,1.25e6,1.40e6,inactive
CG4822,1,1.29e6,1.31e6,7.99e5,7.16e5,inactive
CG5515,1,1.58e6,1.76e6,1.16e6,1.15e6,inactive
IntS10 (Integrator 10),1,1.72e6,1.63e6,1.09e6,1.47e6,inactive
CG13737,1,1.79e6,1.77e6,1.29e6,1.34e6,inactive
Spt (Spitting Image),1,1.77e6,1.75e6,1.38e6,1.56e6,inactive
Pld3 (Phospholipase D family member 3),1,1.31e6,1.38e6,1.05e6,1.09e6,inactive
Unr (Upstream of N-ras),1,1.38e6,1.43e6,1.21e6,1.16e6,inactive
Abca3 (ATP binding cassette subfamily A member 3),1,1.67e6,1.70e6,1.20e6,1.56e6,inactive
"Rgk2 (Rad, Gem/Kir family member 2)",1,1.64e6,1.64e6,1.15e6,1.27e6,inactive
CG31869,1,1.49e6,1.54e6,1.19e6,1.32e6,inactive
CG31869,2,1.58e6,1.63e6,1.19e6,1.28e6,inactive
atilla,1,1.65e6,1.58e6,1.34e6,1.45e6,inactive
SCCRO3 (Squamous cell carcinoma-related oncogene 3),1,1.50e6,1.48e6,1.17e6,1.22e6,inactive
robo3 (roundabout 3),1,1.47e6,1.50e6,1.06e6,1.24e6,inactive
robo3 (roundabout 3),2,1.52e6,1.67e6,9.82e5,1.13e6,inactive
robo3 (roundabout 3),3,1.50e6,1.54e6,1.06e6,1.22e6,inactive
CG12811,1,1.73e6,1.73e6,1.36e6,1.56e6,inactive
CG18731,1,1.49e6,1.50e6,1.04e6,1.06e6,inactive
"alpha-PheRS (Phenylalanyl-tRNA synthetase, alpha-subunit)",1,5.60e5,,8.57e5,,inactive
CG13561,1,1.59e6,1.68e6,1.42e6,1.57e6,inactive
Mst89B,1,1.20e6,1.28e6,1.20e6,1.38e6,inactive
CG13223,1,1.51e6,1.59e6,1.25e6,1.35e6,inactive
RpS13 (Ribosomal protein S13),1,7.27e5,8.65e5,4.89e5,5.85e5,active
CG6661,1,1.74e6,1.81e6,1.17e6,1.30e6,inactive
CG16734,1,1.66e6,1.79e6,1.37e6,1.45e6,inactive
CG4615,1,1.50e6,1.72e6,1.00e6,1.15e6,inactive
CG4615,2,4.62e5,,6.45e5,,inactive
tai (taiman),1,1.06e6,1.28e6,6.49e5,7.72e5,active
tai (taiman),2,1.45e6,1.50e6,1.15e6,1.27e6,inactive
Cdc23 (Cell division cycle 23),1,1.27e6,1.41e6,1.10e6,1.11e6,inactive
Acp32CD (Accessory gland protein 32CD),1,1.55e6,1.67e6,1.29e6,1.43e6,inactive
CG16813,1,1.65e6,1.70e6,1.31e6,1.52e6,inactive
CG11458,1,1.55e6,1.61e6,1.37e6,1.42e6,inactive
Amy-p (Amylase proximal),1,1.50e6,1.57e6,1.12e6,1.19e6,inactive
Opa1 (Optic atrophy 1),1,1.41e6,1.54e6,1.00e6,1.12e6,inactive
Cyp6a14 (retired record),1,1.51e6,1.59e6,1.31e6,1.35e6,inactive
CG11786,1,1.44e6,1.45e6,9.71e5,1.04e6,inactive
Lsp2 (Larval serum protein 2),1,1.73e6,1.69e6,1.40e6,1.51e6,inactive
Lsp2 (Larval serum protein 2),2,1.57e6,1.50e6,1.34e6,1.46e6,inactive
CG14631,1,1.46e6,1.49e6,1.04e6,1.16e6,inactive
CG14631,2,1.51e6,1.48e6,1.06e6,1.14e6,inactive
CG17027,1,1.72e6,1.66e6,1.45e6,1.43e6,inactive
CG15124,1,1.61e6,1.61e6,1.28e6,1.51e6,inactive
fal (falten),1,1.72e6,1.74e6,1.56e6,1.65e6,inactive
insv (insensitive),1,1.62e6,1.64e6,1.07e6,1.21e6,inactive
CG14326,1,1.36e6,1.44e6,1.02e6,1.06e6,inactive
CG1894,1,1.43e6,1.45e6,9.84e5,1.07e6,inactive
Rbp (RIM-binding protein),1,9.14e5,9.61e5,4.99e5,5.24e5,active
Rbp (RIM-binding protein),2,1.57e6,1.61e6,1.12e6,1.21e6,inactive
AttB (Attacin-B),1,1.53e6,1.51e6,1.15e6,1.32e6,inactive
CG18268 + CG3014,1,1.43e6,1.51e6,1.23e6,1.33e6,inactive
mRpS14 (mitochondrial ribosomal protein S14),1,1.42e6,1.44e6,1.01e6,1.07e6,inactive
Mkrn1 (Makorin 1),1,1.27e6,1.44e6,1.22e6,1.33e6,inactive
CG7029,1,1.71e6,1.65e6,1.26e6,1.26e6,inactive
AnxB10 (Annexin B10),1,1.53e6,1.52e6,1.07e6,1.17e6,inactive

8 entries from above, sorted by “S2R+ cell number, rep 2”, descending:
Target gene,reagent no.,"Kc cell number, rep 1","Kc cell number, rep 2","S2R+ cell number, rep 1","S2R+ cell number, rep 2",activity call
Lsp2 (Larval serum protein 2),1,1.73e6,1.69e6,1.40e6,1.51e6,inactive
Lsp2 (Larval serum protein 2),2,1.57e6,1.50e6,1.34e6,1.46e6,inactive
CG11458,1,1.55e6,1.61e6,1.37e6,1.42e6,inactive
Cyp6a14 (retired record),1,1.51e6,1.59e6,1.31e6,1.35e6,inactive
Amy-p (Amylase proximal),1,1.50e6,1.57e6,1.12e6,1.19e6,inactive
CG14631,1,1.46e6,1.49e6,1.04e6,1.16e6,inactive
Opa1 (Optic atrophy 1),1,1.41e6,1.54e6,1.00e6,1.12e6,inactive
CG11786,1,1.44e6,1.45e6,9.71e5,1.04e6,inactive
